The whole screen tested about 31,000 sequences, of which about 1,400 (4.5%) were called active.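 How the source made its calls: active means median seed-adjusted z-score above 1 or below -1; inactive means the rest.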 This is one part of the list.

This assay in a line: Novel Modifiers of Survival Motor Neuron (SMN) Protein: Gene Identification via Genome-wide siRNA Screen.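 Further: luminescence tracks full-length SMN protein made from the SMN2 reporter.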 As to conditions: HEK293T SMN2-luciferase reporter, siRNA knockdown, 72 h; actives lie on both sides. In a few lines:
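HEK293T cells stably expressing an SMN2 splicing/cDNA-luciferase reporter were reverse-transfected with a druggable-genome siRNA library and read by luminescence at 72 hours; hits defined by MAD score above 1.0 or below -1.0.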
For GGCCUUCACCAACAGCAAATT against DNASE1L3, the median seed-adjusted z-score was inactive: 0.0678.

On to GGACGGCAUGACUAUCAAATT against SART3, for which the median seed-adjusted z-score is inactive: 0. As for CGACUAUGCUUUAGAUUAUTT against MAS1, the figure is inactive: -0.0551; as for GGAUUGCCGGGUACUACUATT against GPR132, inactive: 0; as for CUGCCUAUGUUUAUUCGUATT against VPS13B, inactive: 0.

Consider UCAUCACCGUGUCCAAUCATT against TAZ, for which the median seed-adjusted z-score is inactive: 0.0549. As for AGGACUUCGAGAAAGCAUATT against PSMC4, the figure is inactive: -0.361; as for CCGACUCUCUGAUACUGCATT against UNC5C, inactive: 0.0496; as for GGCGAAAUCAGCUUCCAGGTT against CALML5, inactive: -0.175.

In the case of CCUUACCACGAAACCCAAATT against ING5, the median seed-adjusted z-score was inactive: -0.193. The same measure for GCAGAGAUCAGCAACGUGATT against KRT77: inactive: -0.0863; for ACAAAAAGGAUGCACCUGUTT against NTHL1: inactive: 0.364.

Turning to GCACGACUGUUACUGGACUTT against POLRMT, the median seed-adjusted z-score was inactive: 0.0812. The same measure for CAAAUCAUCAGAUCACUAATT against SPTLC3: inactive: 0.279; for CAAGAAGUCAUAUUGAGAATT against ZNF430: inactive: 0.681.

Consider CAGCUGAAAUGUACGACAATT against SGK1, for which the median seed-adjusted z-score is inactive: -0.659. On to GGGUCGAUACAUAUGCUCATT against DOCK9, for which the median seed-adjusted z-score is inactive: 0.61. The same measure for GUAAUUCCAGAUACGCUUATT against UGCG: inactive: 0.492; for GAGAAGACGUGAAACAGUATT against GNAO1: inactive: 0.233; for GAUUUAUCGCAAAAACUGATT against HS6ST1: inactive: -0.436.

As to AGAGUGUGCCGGUCAUCAATT against HNF1A, the median seed-adjusted z-score is inactive: -0.436.

Turning to GGAGUACAGCAGUGAGCAATT against TRIB3, the median seed-adjusted z-score is inactive: 0.00635. As for AGACCACAGUAUGCCGAAATT against MORF4, the figure is inactive: 0.0121.

In the case of UCAUCAAUGCUACUGGUUATT against TM7SF2, the median seed-adjusted z-score was inactive: -0.674. As for GGAUCAAUGGGACACCUUUTT against APCS, the figure is inactive: 0.0494. In the case of GGACUUUAAUCUUACCGAUTT against ITGA1, the median seed-adjusted z-score is inactive: 0.0281. As to GAGACUGUGCAGAUGUAUATT against ANGPT1, the median seed-adjusted z-score is inactive: 0.289. The same measure for CUGUAGGAUUAAUUGCAAATT against SLC16A7: inactive: 0; for CGAUCCUGAUUAUUCGUUUTT against ATE1: inactive: 0.569. Turning to GUGUCUUCUUAAUCCGUAUTT against ZXDB, the median seed-adjusted z-score was inactive: 0.186. Regarding GCGCAGACAUUUUAGCCUATT against XPNPEP3, the median seed-adjusted z-score is inactive: -0.282. Regarding AGCCUAUGAUUUUCCUGAATT against PTF1A, the median seed-adjusted z-score is inactive: 0.482. Consider GCUUCUCAUCGCUACUAUATT against MBD4, for which the median seed-adjusted z-score was inactive: -0.107.

Take CGAUCUCACAAGAAGCCUATT against TBCB: the median seed-adjusted z-score was inactive: 0.69.

Consider AGUUCUGUCUGUUCACGAATT against OAS2, for which the median seed-adjusted z-score was inactive: 0.0758.

On to CUCUGUGAAUUUGAAAUCATT against SNED1, for which the median seed-adjusted z-score was inactive: 0.148. As for CCAGAUUGAUCGACCAGCATT against RUVBL2, the figure is inactive: -0.0764.

Take ACAUCGUCACUGAUCAGAATT against PTPRN: the median seed-adjusted z-score was inactive: -0.272. As for GGAUCACGCAGCUCAAGAUTT against TBX1, the figure is inactive: -0.744; as for GGUCUACACCGGAUAUCGATT against PKD1L3, inactive: -0.658; as for CAGUGAGGUGAAACAAAUATT against DNAJC8, active: -1.62. The same measure for CCAUGAACCGCACACCUGUTT against ACY1: inactive: -0.153; for CAGAACCCAUAUUAACUAUTT against HADHA: inactive: 0.47. The same measure for GCAUGCAGGUGGGCAAGAATT against APOB48R: inactive: 0.386; for GCCCAGAUCUGCAUAGACATT against COL6A1: inactive: 0.509. For the sequence GAAAGAUCAAGGACCGGUATT against LMO3, the median seed-adjusted z-score is inactive: 0.496. As for AUGGAAUUUUAUAAGCUGATT against TSPO, the figure is inactive: -0.206. As to GGUUGCCUGUGGUAUAAGATT against NRD1, the median seed-adjusted z-score is inactive: 0.0825. As for GUCAAGCACUGGUACCAAATT against OAS1, the figure is inactive: 0.442; as for ACAGUAUGCUGAAAUUCUUTT against MORF4L1, inactive: 0.225. The same measure for UCCACUGACUCGUAAAGUUTT against PROK2: inactive: -0.00826; for GGAUGAUGCCUUCAAUACUTT against RAB10: inactive: -0.319. The same measure for CUACCUGAGUAUAAGGAUATT against INSL6: inactive: 0.777. With GGCUAACAUUGACCUGGAATT against TNFRSF17, the median seed-adjusted z-score was inactive: -0.0138. The same measure for AGACAGGGCUGGUUAAACUTT against BRSK1: inactive: -0.0495; for GCAGGUCAGUUCAAGUAGATT against SLC17A1: inactive: -0.271. The same measure for GGUUGAAGCUUACUCCGGATT against DHX9: inactive: -0.687; for CUACGAAUCUGUGAAUGAATT against ERH: active: -1.25. The same measure for GCUUUGGACUGAGAUGGUUTT against PBLD: inactive: -0.0809; for GCAGUGACAUAGCAUCUGATT against ATP8B3: inactive: 0; for CAUUUAUGAGUGUAGUAAATT against ZNF674: inactive: 0.234. Regarding GCGUGUUACACGUUCCCAATT against MLLT4, the median seed-adjusted z-score was inactive: -0.0762. GGCUUGUGGUUUAUCAUUUTT against MS4A8B: the median seed-adjusted z-score was inactive: 0.207. As for GGAGUAGAUUUUAGCAUAATT against TNKS2, the figure is inactive: 0.0545; as for AGGUGAUGUUCGUCAACAATT against SLC14A2, inactive: 0.00107. Take UAAUGACCUUUGAAAAAGUTT against MBL2: the median seed-adjusted z-score was inactive: -0.252. The same measure for CUGGAAGACUACUACUGGATT against MAF: inactive: -0.418; for CGCUCAAGUUCUUCCGCAATT against PDIA2: inactive: 0.151.

For the origin of these results see PubChem BioAssay AID1347426 (Functional Genomics Laboratory (NCATS/FGL), 2020).
